According to publication doi:10.1101/2025.08.21.671500:
Read-outs that look alike come from different tables or passages of the source. No constants are given. Whether binding was seen depends on the method and setting. Binding seen in cells or lysates may run through a third protein. Here binding means that the protein was enriched with, or labelled near, the bait; the list need not be complete. Tags and fused reporters may be left off the sequences shown.

Protein sequences, listed by entry. Tags and fused reporters are not part of them.
UniProt P43268: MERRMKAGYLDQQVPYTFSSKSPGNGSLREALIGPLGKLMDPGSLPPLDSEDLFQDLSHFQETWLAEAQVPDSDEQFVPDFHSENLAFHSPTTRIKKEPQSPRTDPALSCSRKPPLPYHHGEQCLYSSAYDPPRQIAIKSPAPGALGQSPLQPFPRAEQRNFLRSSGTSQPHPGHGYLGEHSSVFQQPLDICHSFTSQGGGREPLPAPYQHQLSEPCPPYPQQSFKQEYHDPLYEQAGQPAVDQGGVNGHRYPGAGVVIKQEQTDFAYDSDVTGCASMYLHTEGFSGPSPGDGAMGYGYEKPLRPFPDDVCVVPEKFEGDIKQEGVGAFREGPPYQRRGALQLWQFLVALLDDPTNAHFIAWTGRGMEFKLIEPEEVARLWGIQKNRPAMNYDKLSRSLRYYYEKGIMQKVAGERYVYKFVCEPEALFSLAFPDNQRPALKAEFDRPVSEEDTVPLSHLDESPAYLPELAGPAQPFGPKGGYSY
UniProt Q92826: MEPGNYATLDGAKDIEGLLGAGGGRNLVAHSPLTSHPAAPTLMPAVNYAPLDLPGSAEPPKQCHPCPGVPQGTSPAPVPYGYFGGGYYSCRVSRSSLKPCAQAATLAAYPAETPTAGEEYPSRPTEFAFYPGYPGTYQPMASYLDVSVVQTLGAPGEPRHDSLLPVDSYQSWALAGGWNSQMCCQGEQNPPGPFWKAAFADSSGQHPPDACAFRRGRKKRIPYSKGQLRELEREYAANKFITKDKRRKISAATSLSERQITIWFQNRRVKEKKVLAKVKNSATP
UniProt P10275: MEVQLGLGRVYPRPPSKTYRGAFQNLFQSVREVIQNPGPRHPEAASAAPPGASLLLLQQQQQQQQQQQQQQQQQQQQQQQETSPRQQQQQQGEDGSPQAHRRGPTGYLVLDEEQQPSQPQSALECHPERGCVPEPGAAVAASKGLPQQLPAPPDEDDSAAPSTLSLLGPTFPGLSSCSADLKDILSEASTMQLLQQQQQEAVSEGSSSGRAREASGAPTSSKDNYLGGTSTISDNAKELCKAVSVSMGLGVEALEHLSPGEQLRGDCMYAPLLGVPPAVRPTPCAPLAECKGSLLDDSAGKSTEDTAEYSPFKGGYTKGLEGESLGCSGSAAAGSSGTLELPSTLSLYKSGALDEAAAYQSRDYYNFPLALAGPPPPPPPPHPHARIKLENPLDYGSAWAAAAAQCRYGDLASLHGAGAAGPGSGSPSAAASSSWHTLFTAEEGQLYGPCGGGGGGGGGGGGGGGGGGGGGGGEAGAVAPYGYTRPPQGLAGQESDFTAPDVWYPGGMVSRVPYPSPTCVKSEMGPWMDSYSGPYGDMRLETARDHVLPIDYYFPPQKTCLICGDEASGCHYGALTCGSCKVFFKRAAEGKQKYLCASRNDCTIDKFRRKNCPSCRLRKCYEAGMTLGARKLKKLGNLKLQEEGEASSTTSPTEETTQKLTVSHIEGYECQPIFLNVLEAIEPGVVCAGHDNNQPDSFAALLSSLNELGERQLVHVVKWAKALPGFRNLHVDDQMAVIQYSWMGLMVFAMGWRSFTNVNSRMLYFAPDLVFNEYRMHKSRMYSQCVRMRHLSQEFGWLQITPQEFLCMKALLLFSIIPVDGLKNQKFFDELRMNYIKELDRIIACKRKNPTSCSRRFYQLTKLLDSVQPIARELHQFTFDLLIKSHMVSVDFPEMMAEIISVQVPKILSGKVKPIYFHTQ

T1: FOXA1 fused to biotin ligase (FOXA1-BioID) (human) (UniProt P55317)
T1 sequence: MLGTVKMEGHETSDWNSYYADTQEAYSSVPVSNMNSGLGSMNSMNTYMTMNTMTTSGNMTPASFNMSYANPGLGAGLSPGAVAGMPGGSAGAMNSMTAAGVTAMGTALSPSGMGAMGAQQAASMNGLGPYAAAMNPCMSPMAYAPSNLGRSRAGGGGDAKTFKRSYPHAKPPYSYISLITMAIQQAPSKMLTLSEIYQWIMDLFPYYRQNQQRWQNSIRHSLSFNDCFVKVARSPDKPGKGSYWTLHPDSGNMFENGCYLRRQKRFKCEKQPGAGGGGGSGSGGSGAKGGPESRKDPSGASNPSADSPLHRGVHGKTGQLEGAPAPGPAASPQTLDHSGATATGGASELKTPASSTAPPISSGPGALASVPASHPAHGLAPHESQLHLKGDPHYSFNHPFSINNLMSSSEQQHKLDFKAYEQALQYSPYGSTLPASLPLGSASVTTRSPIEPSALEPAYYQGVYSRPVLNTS

T2: FOXA2 fused to biotin ligase (FOXA2-BioID) (human) (UniProt Q9Y261)
T2 sequence: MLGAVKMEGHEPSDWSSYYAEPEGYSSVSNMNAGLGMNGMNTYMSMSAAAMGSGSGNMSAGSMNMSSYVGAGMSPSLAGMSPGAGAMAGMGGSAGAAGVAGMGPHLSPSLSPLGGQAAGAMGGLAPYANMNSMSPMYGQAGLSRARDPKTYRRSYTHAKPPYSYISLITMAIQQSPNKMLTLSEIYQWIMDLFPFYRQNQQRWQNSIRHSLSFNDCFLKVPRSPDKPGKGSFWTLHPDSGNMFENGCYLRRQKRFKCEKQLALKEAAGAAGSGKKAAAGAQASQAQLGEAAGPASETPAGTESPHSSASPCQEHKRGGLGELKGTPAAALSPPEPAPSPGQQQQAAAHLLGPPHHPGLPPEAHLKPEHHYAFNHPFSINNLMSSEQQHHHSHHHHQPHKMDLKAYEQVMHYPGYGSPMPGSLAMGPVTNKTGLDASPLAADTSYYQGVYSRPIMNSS

T3: FOXA2 fused to biotin ligase (FOXA2-BioID) (human), Q9Y261
T3 chain: T2 sequence

B1: NKX2-1 (protein, UniProt P43699 1-371)
chain: MSMSPKHTTPFSVSDILSPLEESYKKVGMEGGGLGAPLAAYRQGQAAPPTAAMQQHAVGHHGAVTAAYHMTAAGVPQLSHSAVGGYCNGNLGNMSELPPYQDTMRNSASGPGWYGANPDPRFPAISRFMGPASGMNMSGMGGLGSLGDVSKNMAPLPSAPRRKRRVLFSQAQVYELERRFKQQKYLSAPEREHLASMIHLTPTQVKIWFQNHRYKMKRQAKDKAAQQQLQQDSGGGGGGGGTGCPQQQQAQQQSPRRVAVPVLVKDGKPCQAGAPAPGAASLQGHAQQQAQHQAQAAQAAAAAISVGSGGAGLGAHPGHQPGSAGQSPDLAHHAASPAALQGQVSSLSHLNSSGSDYGTMSCSTLLYGRTW
B2: NKX2-1, P43699 1-371 (protein)
chain: B1 chain
B3: FOXA1 (protein, UniProt P55317 1-472)
chain: T1 sequence
B4: FOXA2 (protein, UniProt Q9Y261 1-457)
chain: T2 sequence

What was measured:
Experiment in all cases: proximity labelling
[1] = biological target: T1, FOXA1 fused to biotin ligase (FOXA1-BioID) (human)
[2] = biological target: T2, FOXA2 fused to biotin ligase (FOXA2-BioID) (human)
[3] = biological target: T1, FOXA1 fused to biotin ligase (FOXA1-BioID) (human); remark: listed apart in the source
[4] = biological target: T2, FOXA2 fused to biotin ligase (FOXA2-BioID) (human); remark: listed apart in the source
[5] = biological target: T1, FOXA1 fused to biotin ligase (FOXA1-BioID) (human); remark: listed apart in the source
[6] = biological target: T3, FOXA2 fused to biotin ligase …; details: remark: other sources report otherwise
[7] = biological target: T2, FOXA2 fused to biotin ligase (FOXA2-BioID) (human); remark: listed apart in the source

Row | Molecule | binding [1] | binding [2] | other results
1 | ETV4 (from UniProt P43268 1-484) | binds weakly | binds weakly | 
2 | HOXB13 (from UniProt Q92826 1-284) | binds | binds | binding [3]: binds; binding [4]: binds
3 | androgen receptor (from UniProt P10275 1-920) | binds | binds | 
4 | B1 |  |  | binding [5]: binds
5 | B2 |  |  | binding [6]: binds
6 | B3 |  |  | binding [7]: binds
7 | B4 |  |  | binding [5]: binds
